Experiment: Visual evaluation of prints for color reproduction and blackness by five persons
Method: Furthermore, samples were evaluated with respect to color reproduction in the following manner. First, Macbeth color checker was photographed using color negative film (Konica Color Centuria 400, available from Konica Corp.) and a camera (Konica FT-1 MOTOR, product by Konica Corp.). Then, photographed film was processed in color negative processing (CNK-4, available from Konica Corp.) and obtained negative images were printed on each of the foregoing sample Nos. 19 through 31 with a size of 82x117 mm, using Konica Color Printer CL-P 2000 (available from Konica Corp.), in which the printing condition was set for each of the samples so that gray on the color checker was reproduced as gray in the print. The thus obtained prints were visually evaluated with respect to color reproduction and blackness. Evaluation was conducted by five persons and marked in accordance with the number of persons approving the print, as below: […]

[1] = prints of Macbeth color checker, number of five persons approving

Structure (SMILES)	blackness (judgement in words, Table 3)	blackness [1]
CCC(C)(C)c1ccc(OCCCCNC(=O)C(NC(=O)c2nn3c(-c4ccc(Cl)c(Cl)c4)n[nH]c3c2Cl)C(C)C)c(C(C)(C)CC)c1 (stereo not shown) [Coupler d]	insufficient	2 (2 marks: 2 persons)
CCC(C)(C)c1ccc(OCCCCNC(=O)c2nn3c(-c4cc(Cl)cc(Cl)c4)n[nH]c3c2Cl)c(C(C)(C)CC)c1 [Coupler b]	insufficient	2 (2 marks: 2 persons)
